From the supplement of paper PMC10849652 come the findings set out here.

Chains of the proteins cited; added tags and fusions are not shown. Lines headed by an entry give the natural chain unless they say otherwise; changes in a name come on top.
UniProt P42892: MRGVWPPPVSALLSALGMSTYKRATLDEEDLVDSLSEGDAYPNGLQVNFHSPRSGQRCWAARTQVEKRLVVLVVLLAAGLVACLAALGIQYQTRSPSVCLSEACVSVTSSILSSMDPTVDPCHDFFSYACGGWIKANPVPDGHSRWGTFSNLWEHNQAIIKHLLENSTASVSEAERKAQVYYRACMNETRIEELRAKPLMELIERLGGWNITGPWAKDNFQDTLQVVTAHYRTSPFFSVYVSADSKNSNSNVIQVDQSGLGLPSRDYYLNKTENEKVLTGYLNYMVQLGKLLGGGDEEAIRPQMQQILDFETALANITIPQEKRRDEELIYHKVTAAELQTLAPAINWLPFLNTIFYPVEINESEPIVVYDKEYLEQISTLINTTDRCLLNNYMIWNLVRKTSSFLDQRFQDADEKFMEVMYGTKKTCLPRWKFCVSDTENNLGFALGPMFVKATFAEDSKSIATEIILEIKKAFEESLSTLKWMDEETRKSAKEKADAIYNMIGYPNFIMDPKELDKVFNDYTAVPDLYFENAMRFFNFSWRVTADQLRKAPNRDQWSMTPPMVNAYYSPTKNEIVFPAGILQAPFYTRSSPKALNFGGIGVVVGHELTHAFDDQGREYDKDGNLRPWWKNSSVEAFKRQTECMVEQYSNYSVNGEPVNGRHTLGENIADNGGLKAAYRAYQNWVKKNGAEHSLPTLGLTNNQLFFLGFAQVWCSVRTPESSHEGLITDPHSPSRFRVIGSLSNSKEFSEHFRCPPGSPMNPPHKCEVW
UniProt Q9NX74: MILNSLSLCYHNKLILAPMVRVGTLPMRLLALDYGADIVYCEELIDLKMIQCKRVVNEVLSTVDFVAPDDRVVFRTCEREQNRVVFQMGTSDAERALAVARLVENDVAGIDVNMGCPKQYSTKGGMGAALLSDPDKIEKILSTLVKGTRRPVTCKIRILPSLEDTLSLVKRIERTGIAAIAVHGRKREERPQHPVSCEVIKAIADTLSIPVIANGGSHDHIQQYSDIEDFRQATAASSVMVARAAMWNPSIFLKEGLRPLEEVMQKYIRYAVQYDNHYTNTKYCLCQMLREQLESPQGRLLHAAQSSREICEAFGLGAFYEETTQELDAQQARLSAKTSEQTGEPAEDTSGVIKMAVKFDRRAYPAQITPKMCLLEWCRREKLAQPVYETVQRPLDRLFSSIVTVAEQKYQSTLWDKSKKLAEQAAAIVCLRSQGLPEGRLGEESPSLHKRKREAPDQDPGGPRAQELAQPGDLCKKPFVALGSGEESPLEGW
UniProt Q9BUP0: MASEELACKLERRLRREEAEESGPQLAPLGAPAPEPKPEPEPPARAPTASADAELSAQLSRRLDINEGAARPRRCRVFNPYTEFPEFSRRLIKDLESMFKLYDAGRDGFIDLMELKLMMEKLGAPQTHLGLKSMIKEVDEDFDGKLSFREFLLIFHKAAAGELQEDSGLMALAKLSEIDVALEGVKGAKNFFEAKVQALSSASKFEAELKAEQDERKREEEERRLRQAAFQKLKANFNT
UniProt Q9NRW4: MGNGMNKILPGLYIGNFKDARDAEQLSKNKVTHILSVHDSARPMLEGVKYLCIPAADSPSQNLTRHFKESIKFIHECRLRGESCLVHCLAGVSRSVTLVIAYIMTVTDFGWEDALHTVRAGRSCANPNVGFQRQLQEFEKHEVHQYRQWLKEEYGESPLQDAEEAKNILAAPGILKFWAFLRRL
UniProt Q14126: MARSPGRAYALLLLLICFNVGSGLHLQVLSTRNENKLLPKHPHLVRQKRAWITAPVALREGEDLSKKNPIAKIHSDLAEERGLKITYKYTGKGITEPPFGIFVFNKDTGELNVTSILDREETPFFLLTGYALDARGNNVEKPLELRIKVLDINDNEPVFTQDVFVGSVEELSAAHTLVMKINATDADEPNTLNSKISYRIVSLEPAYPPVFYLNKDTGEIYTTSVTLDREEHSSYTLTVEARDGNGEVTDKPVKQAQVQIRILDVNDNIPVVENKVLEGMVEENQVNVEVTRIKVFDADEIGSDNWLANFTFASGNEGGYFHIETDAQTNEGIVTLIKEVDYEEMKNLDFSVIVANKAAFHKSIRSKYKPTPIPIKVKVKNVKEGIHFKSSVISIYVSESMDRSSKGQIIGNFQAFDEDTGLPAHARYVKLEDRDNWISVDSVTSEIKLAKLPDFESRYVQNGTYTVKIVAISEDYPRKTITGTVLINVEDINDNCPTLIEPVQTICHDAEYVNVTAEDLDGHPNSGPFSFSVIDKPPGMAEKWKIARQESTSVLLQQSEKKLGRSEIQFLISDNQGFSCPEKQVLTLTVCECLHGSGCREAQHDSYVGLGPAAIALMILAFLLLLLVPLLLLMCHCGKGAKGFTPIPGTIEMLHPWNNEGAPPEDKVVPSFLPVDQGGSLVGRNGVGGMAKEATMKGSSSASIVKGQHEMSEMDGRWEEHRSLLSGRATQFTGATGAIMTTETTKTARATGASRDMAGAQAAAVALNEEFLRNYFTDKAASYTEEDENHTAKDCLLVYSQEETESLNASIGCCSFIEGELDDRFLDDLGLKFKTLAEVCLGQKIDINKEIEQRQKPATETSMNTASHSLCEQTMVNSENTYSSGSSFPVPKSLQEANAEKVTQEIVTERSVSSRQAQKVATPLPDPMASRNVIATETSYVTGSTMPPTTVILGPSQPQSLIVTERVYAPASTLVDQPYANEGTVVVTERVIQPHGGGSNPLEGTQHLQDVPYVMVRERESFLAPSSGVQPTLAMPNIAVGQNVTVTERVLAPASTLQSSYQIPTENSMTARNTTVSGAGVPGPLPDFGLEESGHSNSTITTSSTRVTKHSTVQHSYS
UniProt Q96EV8: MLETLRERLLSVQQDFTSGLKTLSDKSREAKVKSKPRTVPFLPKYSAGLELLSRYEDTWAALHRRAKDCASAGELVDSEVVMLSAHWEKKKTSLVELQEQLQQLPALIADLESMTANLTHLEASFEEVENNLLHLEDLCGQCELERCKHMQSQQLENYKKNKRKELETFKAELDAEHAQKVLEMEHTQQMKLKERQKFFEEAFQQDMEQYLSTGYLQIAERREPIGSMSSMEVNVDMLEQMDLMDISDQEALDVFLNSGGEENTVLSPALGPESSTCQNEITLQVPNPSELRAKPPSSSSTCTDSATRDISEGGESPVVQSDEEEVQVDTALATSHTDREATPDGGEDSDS
UniProt Q9NZJ0: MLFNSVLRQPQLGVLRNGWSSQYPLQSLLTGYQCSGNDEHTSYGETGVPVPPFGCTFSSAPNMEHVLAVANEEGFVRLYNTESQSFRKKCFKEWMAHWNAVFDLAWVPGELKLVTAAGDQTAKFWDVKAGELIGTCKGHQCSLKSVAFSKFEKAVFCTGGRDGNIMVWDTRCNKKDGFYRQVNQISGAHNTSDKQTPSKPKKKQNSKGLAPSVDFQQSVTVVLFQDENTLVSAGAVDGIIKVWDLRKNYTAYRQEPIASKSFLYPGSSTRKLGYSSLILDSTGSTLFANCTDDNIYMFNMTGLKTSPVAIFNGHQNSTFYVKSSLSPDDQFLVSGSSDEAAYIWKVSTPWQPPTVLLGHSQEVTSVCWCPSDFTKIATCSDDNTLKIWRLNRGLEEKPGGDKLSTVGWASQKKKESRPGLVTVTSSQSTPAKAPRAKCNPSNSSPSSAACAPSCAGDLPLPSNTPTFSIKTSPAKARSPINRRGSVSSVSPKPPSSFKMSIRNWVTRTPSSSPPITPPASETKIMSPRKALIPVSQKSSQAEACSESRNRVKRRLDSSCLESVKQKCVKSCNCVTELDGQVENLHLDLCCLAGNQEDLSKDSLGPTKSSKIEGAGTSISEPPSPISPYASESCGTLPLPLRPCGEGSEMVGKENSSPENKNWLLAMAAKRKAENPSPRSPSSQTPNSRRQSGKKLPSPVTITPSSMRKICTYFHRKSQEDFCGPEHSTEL
UniProt Q96C19: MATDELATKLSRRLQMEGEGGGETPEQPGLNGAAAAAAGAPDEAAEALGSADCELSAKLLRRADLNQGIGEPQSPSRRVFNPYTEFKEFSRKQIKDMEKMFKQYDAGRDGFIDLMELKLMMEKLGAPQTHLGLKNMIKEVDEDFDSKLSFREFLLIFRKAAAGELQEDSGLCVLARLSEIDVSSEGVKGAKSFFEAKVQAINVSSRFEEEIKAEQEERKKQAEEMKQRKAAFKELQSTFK
UniProt Q6ZPD9: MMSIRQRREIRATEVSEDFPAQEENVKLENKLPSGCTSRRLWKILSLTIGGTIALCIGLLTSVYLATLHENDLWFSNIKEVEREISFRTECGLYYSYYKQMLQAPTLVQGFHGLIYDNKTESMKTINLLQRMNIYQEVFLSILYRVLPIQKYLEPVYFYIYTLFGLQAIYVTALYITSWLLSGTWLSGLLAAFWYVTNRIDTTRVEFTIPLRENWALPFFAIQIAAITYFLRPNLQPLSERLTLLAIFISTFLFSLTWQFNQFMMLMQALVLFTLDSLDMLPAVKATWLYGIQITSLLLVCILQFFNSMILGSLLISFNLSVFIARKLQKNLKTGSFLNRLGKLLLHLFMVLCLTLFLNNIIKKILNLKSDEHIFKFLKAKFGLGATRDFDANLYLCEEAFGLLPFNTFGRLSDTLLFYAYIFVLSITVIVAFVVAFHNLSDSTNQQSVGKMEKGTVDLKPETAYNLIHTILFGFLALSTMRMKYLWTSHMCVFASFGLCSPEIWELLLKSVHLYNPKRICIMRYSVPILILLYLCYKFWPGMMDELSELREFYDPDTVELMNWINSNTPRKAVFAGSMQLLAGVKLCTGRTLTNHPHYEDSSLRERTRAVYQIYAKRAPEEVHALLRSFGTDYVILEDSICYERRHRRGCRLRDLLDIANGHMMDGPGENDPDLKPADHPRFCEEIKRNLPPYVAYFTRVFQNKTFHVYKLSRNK

This is one part of the list.

What all share (experiment): log2 fold change, soluble protein after heating vs DMSO (PISA); higher = thermal stabilisation; K562 lysate, 10 uM; active = over 0.2 and 3.5 SD of the protein, either way, in both replicates (recomputed)
Compound in test [1]: NCC(=O)Nc1ccc(-n2nc(C(F)(F)F)cc2-c2ccc3c(ccc4ccccc43)c2)cc1
The gist of the method:
(§1)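 Following dounce homogenisation of K562 pellets in PBS pH 7.4 with 1 mM MgCl2, crude extract at 1 mg/mL protein was incubated for 30 min with 10 μM compound. Aliquots were then heated for 3 min over 48°C-58°C and pooled, NP-40 was added to 0.5% at 4°C, and soluble protein was recovered as the supernatant at 21,000xg for 90 min. Channel-sum-equalised TMTpro 16plex LC-MS/MS quantified this protein. Each value, from duplicates, is a log-two fold change in thermal stability relative to solvent controls.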

Compound in a further test: O=C(CCCCCCC(=O)Nc1ccccc1)NO [vorinostat]
Summed up: as §1

Compound in another test: O=C(O)c1ccc2c(c1)nc(Nc1cccc(Cl)c1)c1ccncc12 [silmitasertib]
The gist of the method: as §1

Compound in test [2]: O=C1NC(=O)C(c2cnc3ccccn23)=C1c1cn2c3c(cc(F)cc13)CN(C(=O)N1CCCCC1)CC2
Summed up: as §1

Compound in another test: c1cn2cc(-c3ccc4cn[nH]c4c3)nc(Nc3ccc(N4CCOCC4)cc3)c2n1 [entospletinib]
The gist of the method:
as §1

For ECE1 (UniProt P42892), the log2 fold change in test [1] is inactive: 0.018; in the test with vorinostat, inactive: 0.135; with silmitasertib, inactive: 0.012; in test [2], inactive: -0.018; in the test with entospletinib it was inactive: 0.032.
In the same order, the values of DUS2 (UniProt Q9NX74) are inactive: -0.01, inactive: -0.014, active: 0.555, inactive: -0.037 and inactive: -0.042.
In the same order, the values of EFHD1 (UniProt Q9BUP0) are inactive: 0.002, inactive: 0.143, inactive: -0.014, inactive: 0.031 and inactive: -0.002.
As for DUSP22 isoform 2 (UniProt Q9NRW4), the log2 fold change in test [1] is inactive: -0.025; with vorinostat, inactive: -0.102; in the test with silmitasertib it was inactive: 0.002.
On to DSG2 (UniProt Q14126), for which the log2 fold change was inactive: 0.016 in test [1]; inactive: 0.119 with vorinostat; inactive: 0.022 with silmitasertib; inactive: 0.033 in test [2]; inactive: -0.013 with entospletinib.
In the same order, the values of DTNBP1 (UniProt Q96EV8) are inactive: -0.018, inactive: 0.015, inactive: 0, inactive: 0.016 and inactive: -0.04.
In the case of DTL (UniProt Q9NZJ0), the log2 fold change in test [1] is inactive: -0.011; with vorinostat, inactive: -0.165; with silmitasertib it was inactive: -0.042; in test [2], inactive: 0.052.
As to EFHD2 (UniProt Q96C19), the log2 fold change was inactive: -0.015 in test [1]; inactive: 0.114 in the test with vorinostat; inactive: -0.004 with silmitasertib; inactive: 0.009 in test [2]; inactive: 0.018 in the test with entospletinib.
The matching figures for DPY19L3 (UniProt Q6ZPD9): inactive: -0.085, inactive: 0.219, inactive: 0.108, inactive: 0.035 and inactive: -0.024.
The matching figures for EEF1A1, A0A087WVQ9: inactive: -0.025, active: -0.541, inactive: -0.002, inactive: -0.022 and inactive: 0.015.
